We go through 1 sequence from ChEMBL document CHEMBL3400138, “Synthesis of 3-azabicyclo[3.2.2]nonanes and their antiprotozoal activities” (Bioorg Med Chem Lett, 2015).

The subject of this assay is Candida albicans. The experiment in a line: Antifungal activity against Candida albicans ATCC 10231 at 100 ug after 48 hrs. Type of assay: functional, organism-based.

As to NYSTATIN, the inhibition zone (IZ) came to 23 mm.
